Taken from: PubChem BioAssay AID1508597 (Cure First, 2020)
Shown is an unselected part of the about 2,100 reagents, under one of the conditions tested. 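Calls flag viability under 80% in either arm, not effects specific to rucaparib; the reference for percent is not stated.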 No sequences are given here. Not given: the 100% reference.

Aim: 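Survival screen with siRNA in ovarian cancer cells derived from patients, with or without rucaparib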 (primary screen)
Cell system: human ovarian carcinoma lines grown from tumours: OCI-P5x (papillary serous) and OCI-C5x (clear cell)
Knock-down reagent: siRNA pool against human genes, 1.25 pmol siRNA per well
Duration: 72 h or 96 h, depending on the cell culture
Treatment: rucaparib 20 µM (about IC30) or vehicle, present until read-out
Rucaparib or vehicle: Vehicle
Cell line: OCI-C5x (clear cell)
Measurement: 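ATP luminescence measured at 72 or 96 h according to the culture, then normalised and expressed as percent viability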
Direction: viability, normalised: higher = more viable cells remaining
Rule for the call: 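a well counts as a hit if its normalised viability is under 80 percent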
Calls: active = viability under 80%; inactive = viability 80% or more

With RASA3 (RAS p21 protein activator 3), technical replicate 1 the deposit lists viability, normalised (%) = 60.5; active.
For RASA3 (RAS p21 protein activator 3), technical replicate 2 the deposit lists viability, normalised (%) = 46.9; active.
With RASA3 (RAS p21 protein activator 3), technical replicate 3, the entry reads viability, normalised (%) = 72; active.
With APPL1, technical replicate 1, the values are viability, normalised (%) = 59.4; active.
APPL1, technical replicate 2 scored viability, normalised (%) = 48.5; active.
APPL1, technical replicate 3 gave viability, normalised (%) = 54.8; active.
With CLDN8 (claudin 8), technical replicate 1, the entry reads viability, normalised (%) = 34.6; active.
For CLDN8 (claudin 8), technical replicate 2, the values are viability, normalised (%) = 39.8; active.
CLDN8 (claudin 8), technical replicate 3 scored viability, normalised (%) = 38.9; active.
XRCC2 (X-ray repair cross complementing 2), technical replicate 1 gave viability, normalised (%) = 91.9; inactive.
XRCC2 (X-ray repair cross complementing 2), technical replicate 2 scored viability, normalised (%) = 47.2; active.
XRCC2 (X-ray repair cross complementing 2), technical replicate 3 showed viability, normalised (%) = 45.4; active.
KDM4B (lysine demethylase 4B), technical replicate 1 scored viability, normalised (%) = 53.3; active.
For KDM4B (lysine demethylase 4B), technical replicate 2 the deposit lists viability, normalised (%) = 41.5; active.
KDM4B (lysine demethylase 4B), technical replicate 3 scored viability, normalised (%) = 58.1; active.
For CENPE (centromere protein E), technical replicate 1, the values are viability, normalised (%) = 37.2; active.
CENPE (centromere protein E), technical replicate 2 gave viability, normalised (%) = 26.7; active.
CENPE (centromere protein E), technical replicate 3 gave viability, normalised (%) = 32.8; active.
With CNR2 (cannabinoid receptor 2), technical replicate 1, the entry reads viability, normalised (%) = 39.4; active.
CNR2 (cannabinoid receptor 2), technical replicate 2 gave viability, normalised (%) = 54.5; active.
CNR2 (cannabinoid receptor 2), technical replicate 3 scored viability, normalised (%) = 35.7; active.

A stretch of the results above, for reference:
RASA3 (RAS p21 protein activator 3), technical replicate 3 → viability, normalised (%) = 72; outcome = active
APPL1, technical replicate 1 → viability, normalised (%) = 59.4; outcome = active
APPL1, technical replicate 2 → viability, normalised (%) = 48.5; outcome = active
